{"source": "patent US11713339B2", "about": "(UNIVERSITY OF WARWICK, priority 2018, dated 2023)", "note": "Several values for one entry are separate records, joined by “and”; a condition that tells them apart may be missing. Identical values can stand only once. *: point of attachment. Cbz = O=C(OCc1ccccc1)*; Boc = CC(C)(C)OC(=O)*; OBn = c1ccc(CO*)cc1; Bn = c1ccc(C*)cc1"}
{"assay": "peptide synthesis", "conditions": "coupling step", "units": {"step yield": "%"}}
{"substance": "Boc-AGAY(Bn)-OBn", "step yield": 73}
{"substance": "Boc-Ala-GOx-Ala-Tyr(Bn)-OBn", "step yield": 59}
{"substance": "Boc-GAY(Bn)L-OBn", "step yield": 84}
{"substance": "Boc-Leu-Ala-GOx-Ala-OBn", "step yield": 74}
{"substance": "Cbz-AGAY(Bn)L-OBn", "step yield": 93}
{"substance": "Cbz-Ala-GOx-Ala-Tyr(Bn)-Leu-OBn", "step yield": 83}
{"substance": "Cbz-D-Pro-Leu-GAz(Boc)-Gly-OBn", "step yield": 62}
{"substance": "Cbz-GOx-Ala-Tyr(Bn)-Leu-Ala-OBn", "step yield": 68}
{"substance": "Cbz-LAGAY(Bn)-OBn", "step yield": 63}
{"substance": "Cbz-Leu-Ala-GOx-Ala-Tyr(Bn)-OBn", "step yield": 55}
{"substance": "Cbz-Leu-Tyr(^tBu)-Val-GAz(Boc)-Thr(^tBu)-Phe-OBn", "step yield": 82}
{"substance": "Cbz-Trp-Leu-GOx-Gly-OBn", "step yield": 44}
{"substance": "Cbz-Tyr(Bn)-Leu-Ala-GOx-Ala-OBn", "step yield": 48}
{"substance": "Cbz-WLGG-OBn", "step yield": 88}
{"substance": "Fmoc-Asn(Trt)-GOx-Arg(Pbf)-Cys(Trt)-OtBu", "step yield": 78}
{"substance": "Fmoc-Cys(Trt)-Asn(Trt)-GOx-Arg(Pbf)-Cys(Trt)-OtBu", "step yield": 81}
{"substance": "Fmoc-Tyr(^tBu)-Val-GAz(Boc)-Thr(^tBu)-Phe-OBn", "step yield": 73}
{"substance": "Fmoc-Val-GAz(Boc)-Thr(^tBu)-Phe-OBn", "step yield": 74}
{"substance": "NO2-GOx-Ala-Tyr(Bn)-Leu-OBn", "step yield": 48}
{"assay": "peptide synthesis", "conditions": "cyclisation step"}
{"substance": "Cyclo(Ala-GOx-Ala-Tyr-Leu)", "cyclisation yield": "54%"}
{"substance": "Cyclo(Trp-Leu-AOx-Gly)", "cyclisation yield": "50% and 49%"}
{"substance": "Cyclo(Trp-Leu-GOx-Gly)", "cyclisation yield": "65%"}
{"substance": "Cyclo-((D)Pro-Leu-GAz(Boc)-Gly)", "cyclisation yield": "79%"}
{"substance": "Cyclo-(Leu-Tyr(^tBu)-Val-GAz(Boc)-Thr(^tBu)-Phe)", "cyclisation yield": "57%"}
{"substance": "Cyclo-(Phe-Glu(^tBu)-GAz(Boc)-Thr(^tBu)-Gly)", "cyclisation yield": "73%"}
{"substance": "cyclo(AGAYL)", "cyclisation yield": "42%"}
{"substance": "cyclo(WLGG)", "cyclisation yield": "15%"}
{"assay": "peptide synthesis", "conditions": "late stage modification step", "units": {"step yield": "%"}}
{"substance": "H-Ala-GOx-Ala-Tyr-Leu-OH", "step yield": ">99"}
{"substance": "H-Ala-Gly-Ala-Tyr-Leu-OH", "step yield": 65}
{"substance": "H-GOx-Ala-Tyr-Leu-Ala-OH", "step yield": 95}
{"substance": "H-Leu-Ala-Gly-Ala-Tyr-OH", "step yield": 64}
{"substance": "H-Tyr-Leu-Ala-GOx-Ala-OH", "step yield": ">99"}
{"assay": "peptide synthesis", "conditions": "oxidative folding step, over two steps", "units": {"oxidative folding yield": "% yield over two steps"}}
{"substance": "Cyclo(H-CVs-Asn-GOx-Arg-CVs-OH)", "oxidative folding yield": 32}
{"assay": "peptide synthesis", "conditions": "whole synthesis, TFA salt", "units": {"isolated yield": "%"}}
{"substance": "Cyclo(Ala-Trp-GOx-Gly-Leu)", "isolated yield": 13}
{"substance": "Cyclo(Met-Ala-Trp-GOx-Gly-Leu)", "isolated yield": 7}
{"substance": "Cyclo(Ser-Met-Ala-Trp-GOx-Gly-Leu)", "isolated yield": 13}
{"assay": "peptide synthesis", "conditions": "whole synthesis, over the complete reaction sequence, scale 0.10 mmol", "units": {"isolated yield": "%"}}
{"substance": "Cyclo(Leu-GOx-Gly-Trp(Boc))", "isolated yield": 39}
{"assay": "peptide synthesis", "conditions": "whole synthesis, scale 0.05 mmol, TFA salt", "units": {"isolated mass": "mg"}}
{"substance": "Cyclo(Ala-Trp-GOx-Gly-Leu)", "isolated mass": 2.4}
{"substance": "Cyclo(Met-Ala-Trp-GOx-Gly-Leu)", "isolated mass": 2.5}
{"substance": "Cyclo(Ser-Met-Ala-Trp-GOx-Gly-Leu)", "isolated mass": 6.2}
{"assay": "general procedure: solution-phase peptide synthesis; 2-chlorotrityl; EDC·HCl/HOBt or HATU/DIPEA for chain assembly; DEPBT, PyBOP, HATU or T3P for cyc", "conditions": "whole synthesis", "units": {"crude yield": "%"}}
{"substance": "H-Phe-Glu(^tBu)-GAz(Boc)-Thr(^tBu)-Gly-OH", "crude yield": 68}
